Source: publication PMC10321654
No constants are given. Whether binding was seen depends on the method and setting. In cells and extracts the contact can be indirect. Some binding calls cover weakened binding; strength is not graded here.

Amino acid sequences for entries named in this document (tags omitted).
UniProt P97371: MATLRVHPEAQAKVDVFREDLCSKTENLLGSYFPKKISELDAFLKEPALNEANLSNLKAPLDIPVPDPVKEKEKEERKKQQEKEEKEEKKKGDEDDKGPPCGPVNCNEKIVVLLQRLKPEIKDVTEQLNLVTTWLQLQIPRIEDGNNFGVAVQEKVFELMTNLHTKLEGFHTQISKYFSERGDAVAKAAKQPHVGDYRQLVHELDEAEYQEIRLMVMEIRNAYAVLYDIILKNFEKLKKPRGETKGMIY

How the values were obtained:
[1] = biological target: 3xFLAG-LegC4 (L. pneumophila) (UniProt Q5ZU55); experiment: co-IP
GST-PA28α = GST-PA28α (UniProt P97371); experiment: pull-down; only the target purified
GFP-PA28α = GFP-PA28α (UniProt P97371); experiment: co-IP

Q: Which binding [1] does the source give for PA28α-Myc (from UniProt P97371 1-249) here?
A: The binding was “binds”.

Q: “[change]-LegC4 (from UniProt Q5ZU55 1-760)” was tested. Which binding (GST-PA28α) did it give?
A: The binding was “binds”.

Q: With “3xFLAG-LegC4 (from UniProt Q5ZU55 1-760)” as the substance, how does the binding (GFP-PA28α) read?
A: Its binding is “binds”.
